Results published in paper PMC7472852, “The Phosphatase PP2A Interacts With ArnA and ArnB to Regulate the Oligomeric State and the Stability of the ArnA/B Complex” (Frontiers in Microbiology, 2020).
No constants are given. Whether binding was seen depends on the method and setting. Binding seen in cells or lysates may run through a third protein. These calls come from enrichment with a bait or labelling near it, and not all partners need be listed. Values belong to the binder of their own block, whether it stands above or below them.

Chains of the proteins cited; added tags and fusions are not shown. Lines headed by an entry give the natural chain unless they say otherwise; changes in a name come on top.
UniProt Q4JAD1: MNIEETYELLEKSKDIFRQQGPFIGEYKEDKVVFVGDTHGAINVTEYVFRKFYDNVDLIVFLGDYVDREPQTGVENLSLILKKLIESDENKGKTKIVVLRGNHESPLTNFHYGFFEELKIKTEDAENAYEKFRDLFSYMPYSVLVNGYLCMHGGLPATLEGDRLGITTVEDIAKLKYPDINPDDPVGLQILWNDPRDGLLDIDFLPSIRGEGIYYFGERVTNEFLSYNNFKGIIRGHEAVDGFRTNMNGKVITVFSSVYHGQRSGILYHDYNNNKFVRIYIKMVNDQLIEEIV

Molecular target: HA-tagged PP2A (serine/threonine phosphatase PP2A of S. acidocaldarius) (S. acidocaldarius) (UniProt Q4JAD1)
Assay: affinity purification with mass spectrometry; anti-HA magnetic beads (Pierce HA-tag IP/co-IP kit) on cytoplasmic fraction of S. acidocaldarius with chromosomally HA-tagged PP2A, 0.5 h in starvation medium; no cross-linker; MW001 as control; LC-MS/MS, label-free quantification

binding: binds
B1: conserved putative ATP/GTP binding protein Saci_1281 (protein, UniProt Q4J9A7 1-254)
chain: MYFIFVLGTAGSGKTTLVKALQDYLLNNELDTAIINLDPAVEVLPYKPDIDAREYVDVYDVMNKYELGPNSSLVISVDLLLTKAKELKEDLNQLQANYVLVDTPGQIELFAYRDTGKILSSFISEGSKSVSVFLFDSYLSKDPKSFLSLFLLSSSIKFRIDMPQISVLSKVDLLSSSELERMRSWIEDGSIIDELGSIDEYSFELVKTIVENLESFPIPVSSTNFSGLDQLYAEVQKVLAGGEDFETEEPNPRL

binding: binds
B2: universal stress protein Saci_0887 (protein, UniProt Q4JAC8 1-128)
chain: MKFLIAYDGSEQSKKAVRFLLRILKKEDEVYVITVIKEAPRSPDQKIIEDEKKAEGLHKEVLELFPSAKSAIIESGDVVSTIIDYCERVNCDMIVTGSRGLTGIKKVVIGSVSSALIEKAKVPILVVK
